# According to article PMC10897203:
# Amino acid sequences for entries named in this document (tags omitted).
# UniProt P61765: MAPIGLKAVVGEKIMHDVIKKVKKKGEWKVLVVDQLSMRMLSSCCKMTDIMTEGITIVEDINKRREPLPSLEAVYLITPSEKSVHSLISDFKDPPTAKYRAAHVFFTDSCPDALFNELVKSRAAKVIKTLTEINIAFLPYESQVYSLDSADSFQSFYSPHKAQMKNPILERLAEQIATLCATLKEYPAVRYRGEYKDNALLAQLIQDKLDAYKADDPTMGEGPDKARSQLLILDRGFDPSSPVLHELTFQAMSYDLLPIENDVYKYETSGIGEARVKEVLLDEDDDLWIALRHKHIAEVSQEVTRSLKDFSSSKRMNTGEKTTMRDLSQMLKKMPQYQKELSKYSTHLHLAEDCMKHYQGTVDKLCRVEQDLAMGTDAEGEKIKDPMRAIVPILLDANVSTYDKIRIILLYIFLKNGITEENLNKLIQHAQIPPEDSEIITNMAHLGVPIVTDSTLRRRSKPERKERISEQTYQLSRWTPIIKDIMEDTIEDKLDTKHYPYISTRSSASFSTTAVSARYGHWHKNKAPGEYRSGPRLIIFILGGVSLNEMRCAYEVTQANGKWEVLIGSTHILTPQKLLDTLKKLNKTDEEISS
# T1: GFP-DDHD2 (pEGFP-C1-DDHD2^WT) (UniProt O94830)
# T1 sequence: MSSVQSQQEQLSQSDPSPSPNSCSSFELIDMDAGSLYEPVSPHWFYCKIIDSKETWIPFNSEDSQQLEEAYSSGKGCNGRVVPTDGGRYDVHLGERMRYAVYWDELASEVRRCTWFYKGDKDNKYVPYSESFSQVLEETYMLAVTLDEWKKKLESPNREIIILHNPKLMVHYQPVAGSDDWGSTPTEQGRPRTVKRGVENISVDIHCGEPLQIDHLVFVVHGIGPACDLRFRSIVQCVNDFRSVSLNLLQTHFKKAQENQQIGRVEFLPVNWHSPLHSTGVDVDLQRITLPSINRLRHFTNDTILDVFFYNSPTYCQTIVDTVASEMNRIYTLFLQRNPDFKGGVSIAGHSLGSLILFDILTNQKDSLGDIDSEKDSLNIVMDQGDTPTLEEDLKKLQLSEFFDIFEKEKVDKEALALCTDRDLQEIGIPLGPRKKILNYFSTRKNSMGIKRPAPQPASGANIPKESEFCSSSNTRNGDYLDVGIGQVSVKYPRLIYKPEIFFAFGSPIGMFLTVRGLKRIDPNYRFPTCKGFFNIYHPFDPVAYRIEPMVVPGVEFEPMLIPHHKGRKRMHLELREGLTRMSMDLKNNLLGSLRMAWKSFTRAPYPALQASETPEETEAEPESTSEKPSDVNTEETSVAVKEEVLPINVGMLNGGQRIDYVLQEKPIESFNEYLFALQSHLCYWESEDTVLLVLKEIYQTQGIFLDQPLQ
# B1: DDHD2, endogenous in PC12 cells (enzyme, UniProt D3ZJ91 1-699)
# chain: MSSGESYQEQLSQSDPSPSPNSSSSFELLDMDVGSSYEPVSPHWFYCKVIDSKELWIPFNSEDSQQLEEAHGSGKDCNERVVPTDGGRYDVHLGERMRYAVYWDELPSEVRRCTWFYKGDKDNKYVPYSESFSQVLEDTYMLAVTLDEWKKKLESPNREIIVLHNPKLMVHYQPITGSDEWGSTSTEQGRPRSVKRGVESIPVDIHCGEPLQIDHLVFVVHGIGPACDLRFRSIVQCVNDFRSVSLNLLQTHFKKAQENQQIGRVEFLPVNWHSPLHSTGVDIDLQRITLPSINRLRHFTNDTILDVFFYNSPTYCQTIVDTVASEMNRIYTLFLQRNPDFKGGVSIAGHSLGSLILFDILTNQKDSIGDIDSEKGSLSTAEDLGDVSTLEEELKKLQLSEFVTVFEKEKVDREALALCTDRDLQEMGIPLGPRKKILNHFSATKSSVGINRPTMSASEVNIPKEKGDYLDVGIGQVSVKYPRLNYKPEIFFAFGSPIGMFLTVRGLRRIDPNYKFPTCKGFFNIYHPFDPVAYRIEPMVVPGVEFEPMLIPHHKGRKRMHLELREGLTRMSMDLKNNLLGSLRMAWKSFTRAPYPALQASEMAEDTEAESEPSSEKPSDANTEEPPVEVKEEAPINVGMLNGGQRIDYVLQEKPIESFNEYLFALQSHLCYWESEDTVLLVLKEIYQTQGIFLDQPLQ
# B2: Sec22b, endogenous in PC12 cells (protein, UniProt Q4KM74 1-215)
# chain: MVLLTMIARVADGLPLAASMQEDEQSGRDLQQYQSQAKQLFRKLNEQSPTRCTLEAGAMTFHYIIEQGVCYLVLCEAAFPKKLAFAYLEDLHSEFDEQHGKKVPTVSRPYSFIEFDTFIQKTKKLYIDSRARRNLGSINTELQDVQRIMVANIEEVLQRGEALSALDSKANNLSSLSKKYRQDAKYLNMRSTYAKLAAVAVFFIMLIVYVRFWWL
# B3: Rab5c, endogenous in PC12 cells (protein, UniProt B0BNK1 1-216)
# chain: MAGRGGAARPNGPAAGNKICQFKLVLLGESAVGKSSLVLRFVKGQFHEYQESTIGAAFLTQTVCLDDTTVKFEIWDTAGQERYHSLAPMYYRGAQAAIVVYDITNTDTFARAKNWVKELQRQASPNIVIALAGNKADLASKRAVEFQEAQAYADDNSLLFMETSAKTAMNVNEIFMAIAKKLPKNEPQNAAGAPGRNRGVDLQESNPASRSQCCSN
# B4: Nefm, endogenous in PC12 cells (protein, UniProt P12839 1-846)
# chain: MSYTLDSLGNPSAYRRVPTETRSSFSRVSGSPSSGFRSQSWSRGSPSTVSSSYKRSALAPRLAYSSAMLSSAESSLDFSQSSSLLNGGSGGDYKLSRSNEKEQLQGLNDRFAGYIEKVHYLEQQNKEIEAEIHALRQKQASHAQLGDAYDQEIRELRATLEMVNHEKAQVQLDSDHLEEDIHRLKERFEEEARLRDDTEAAIRAVRKDIEESSMVKVELDKKVQSLQDEVAFLRSNHEEEVADLLAQIQASHITVERKDYLKTDISTALKEIRSQLECHSDQNMHQAEEWFKCRYAKLTEAAEQNKEAIRSAKEEIAEYRRQLQSKSIELESVRGTKESLERQLSDIEERHNHDLSSYQDTIQQLENELRGTKWEMARHLREYQDLLNVKMALDIEIAAYRKLLEGEETRFSTFSGSITGPLYTHRQPSVTISSKIQKTKVEAPKLKVQHKFVEEIIEETKVEDEKSEMEDALTVIAEELAASAKEEKEEAEEKEEEPEVEKSPVKSPEAKEEEEGEKEEEEEGQEEEEEEDEGVKSDQAEEGGSEKEGSSEKDEGEQEEEGETEAEGEGEEAEAKEEKKTEGKVEEMAIKEEIKVEKPEKAKSPVPKSPVEEVKPKPEAKAGKDEQKEEEKVEEKKEVAKESPKEEKVEKKEEKPKDVPDKKKAESPVKEKAVEEMITITKSVKVSLEKDTKEEKPQQQEKVKEKAEEEGGSEEEVGDKSPQESKKEDIAINGEVEGKEEEEQETQEKGSGQEEEKGVVTNGLDVSPAEEKKGEDRSDDKVVVTKKVEKITSEGGDGATKYITKSVTVTQKVEEHEETFEEKLVSTKKVEKVTSHAIVKEVTQGD
# B5: Rab3c, endogenous in PC12 cells (protein, UniProt P62824 1-227)
# chain: MRHEAPMQMASAQDARFGQKDSSDQNFDYMFKLLIIGNSSVGKTSFLFRYADDSFTSAFVSTVGIDFKVKTVFKNEKRIKLQIWDTAGQERYRTITTAYYRGAMGFILMYDITNEESFNAVQDWSTQIKTYSWDNAQVILAGNKCDMEDERVVSTERGQRLGEQLGFEFFETSAKDNINVKQTFERLVDIICDKMSESLETDPAITAAKQSTRLKETPPPPQPNCGC
# B6: Rab10, endogenous in PC12 cells (protein, UniProt P35281 1-200)
# chain: MAKKTYDLLFKLLLIGDSGVGKTCVLFRFSDDAFNTTFISTIEIDFKIKTVELQGKKIKLQIWDTAGQERFHTITTSYYRGAMGIMLVYDITNGKSFENISKWLRNIDQHANEDVERMLLRNKCDMDHKRVVPKGKGEQIAREHRIRFFETSAKANINIEKAFLTLPEDILRKTPVKEPNSENVDISSGGGVTGWKSKCC
# Biological target: STXBP1-emGFP (pCMV-STXBP1-emGFP) (UniProt P61765)
# Experiment: affinity purification with mass spectrometry; anti-GFP pull-downs of GFP-tagged DDHD2 or GFP-tagged STXBP1 from PC12 cells; targeted MRM-MS of seven STXBP1 and four DDHD2 proteotypic peptides; unstimulated or stimulated (high K+) cells
row,binding,Binder
1,binds,B1

# Biological target: T1, GFP-DDHD2 (pEGFP-C1-DDHD2^WT)
# Experiment: affinity purification with mass spectrometry; anti-GFP magnetic beads on lysate (0.5% NP-40, 150 mM NaCl) of PC12 cells transfected with GFP-tagged DDHD2, resting state; tryptic digest, untargeted high-resolution tandem MS (HRMS), 1% FDR; proteins found in non-GFP process controls removed
row,binding,Binder
1,binds,B2
2,binds,B3
3,binds,B4
4,binds,B5
5,binds,B6

# Results are given in words; binding and its absence hold for the method and conditions named. Binding seen in cells or lysates may run through a third protein. Here binding means that the protein was enriched with, or labelled near, the bait; the list need not be complete. For part of these data: Where a sequence is shown, tags or fusion partners need not be part of it.
